Experiment [1] has as its target scaffold-attachment-factor A (SAFA), endogenous in BJ fibroblasts (human (endogenous in BJ fibroblasts)) (UniProt Q00839). Nature of the experiment: co-IP; endogenous proteins; EtOH-treated pre-senescent proliferating ER:Ras^V12 BJ fibroblasts (for HP1 and β-actin also 4OHT-induced cells at day 2); IP with antibody to SAFA or IgG, blots for EZH2, BMI1, HP1α and β-actin.

The chains behind the UniProt entries cited, without tags or fusion partners.
UniProt Q00839: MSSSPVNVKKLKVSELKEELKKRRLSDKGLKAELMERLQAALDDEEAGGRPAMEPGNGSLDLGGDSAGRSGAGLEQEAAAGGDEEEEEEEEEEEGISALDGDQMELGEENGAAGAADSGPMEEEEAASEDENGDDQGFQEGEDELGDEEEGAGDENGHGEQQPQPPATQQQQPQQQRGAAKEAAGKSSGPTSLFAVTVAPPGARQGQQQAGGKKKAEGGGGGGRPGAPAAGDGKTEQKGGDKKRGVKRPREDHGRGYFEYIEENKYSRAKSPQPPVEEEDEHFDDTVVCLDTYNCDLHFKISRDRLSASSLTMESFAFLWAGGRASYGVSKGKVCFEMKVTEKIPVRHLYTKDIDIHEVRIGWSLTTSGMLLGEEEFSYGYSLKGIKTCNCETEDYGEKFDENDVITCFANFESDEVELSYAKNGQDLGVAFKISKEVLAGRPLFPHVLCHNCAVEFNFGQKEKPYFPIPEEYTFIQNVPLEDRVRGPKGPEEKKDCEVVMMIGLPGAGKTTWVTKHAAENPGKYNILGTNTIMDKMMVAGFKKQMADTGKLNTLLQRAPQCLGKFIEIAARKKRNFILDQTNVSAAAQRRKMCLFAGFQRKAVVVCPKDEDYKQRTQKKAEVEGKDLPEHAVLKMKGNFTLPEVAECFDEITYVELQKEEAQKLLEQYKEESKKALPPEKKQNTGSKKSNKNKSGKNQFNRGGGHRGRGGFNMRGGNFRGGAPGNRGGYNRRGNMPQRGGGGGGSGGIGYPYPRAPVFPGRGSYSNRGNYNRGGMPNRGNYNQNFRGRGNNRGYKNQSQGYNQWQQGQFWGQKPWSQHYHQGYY
UniProt Q06587: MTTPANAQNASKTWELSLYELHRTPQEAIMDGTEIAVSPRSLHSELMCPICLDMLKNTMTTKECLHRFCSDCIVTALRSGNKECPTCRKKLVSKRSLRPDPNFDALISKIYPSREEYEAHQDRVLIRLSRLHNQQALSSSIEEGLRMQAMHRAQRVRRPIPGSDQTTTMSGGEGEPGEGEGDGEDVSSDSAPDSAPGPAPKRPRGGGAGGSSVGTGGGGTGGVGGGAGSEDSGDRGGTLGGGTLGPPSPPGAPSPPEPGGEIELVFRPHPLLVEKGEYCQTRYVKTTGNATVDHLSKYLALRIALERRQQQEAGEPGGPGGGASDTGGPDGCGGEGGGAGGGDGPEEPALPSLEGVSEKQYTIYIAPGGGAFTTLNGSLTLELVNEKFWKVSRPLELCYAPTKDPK
UniProt P35226: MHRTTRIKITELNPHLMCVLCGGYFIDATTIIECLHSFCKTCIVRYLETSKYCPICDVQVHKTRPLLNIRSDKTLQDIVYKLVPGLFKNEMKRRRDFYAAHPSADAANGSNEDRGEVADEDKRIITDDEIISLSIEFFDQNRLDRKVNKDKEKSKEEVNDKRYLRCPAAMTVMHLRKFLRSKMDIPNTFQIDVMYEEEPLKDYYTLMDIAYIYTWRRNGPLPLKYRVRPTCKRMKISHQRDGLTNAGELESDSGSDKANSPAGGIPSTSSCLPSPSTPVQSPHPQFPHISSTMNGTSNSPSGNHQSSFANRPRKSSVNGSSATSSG
UniProt P45973: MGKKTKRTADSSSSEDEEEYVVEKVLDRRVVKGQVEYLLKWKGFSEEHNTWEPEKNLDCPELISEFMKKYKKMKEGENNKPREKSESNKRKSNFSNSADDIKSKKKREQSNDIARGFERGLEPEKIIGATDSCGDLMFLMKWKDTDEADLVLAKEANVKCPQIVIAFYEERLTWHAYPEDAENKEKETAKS
UniProt Q15022: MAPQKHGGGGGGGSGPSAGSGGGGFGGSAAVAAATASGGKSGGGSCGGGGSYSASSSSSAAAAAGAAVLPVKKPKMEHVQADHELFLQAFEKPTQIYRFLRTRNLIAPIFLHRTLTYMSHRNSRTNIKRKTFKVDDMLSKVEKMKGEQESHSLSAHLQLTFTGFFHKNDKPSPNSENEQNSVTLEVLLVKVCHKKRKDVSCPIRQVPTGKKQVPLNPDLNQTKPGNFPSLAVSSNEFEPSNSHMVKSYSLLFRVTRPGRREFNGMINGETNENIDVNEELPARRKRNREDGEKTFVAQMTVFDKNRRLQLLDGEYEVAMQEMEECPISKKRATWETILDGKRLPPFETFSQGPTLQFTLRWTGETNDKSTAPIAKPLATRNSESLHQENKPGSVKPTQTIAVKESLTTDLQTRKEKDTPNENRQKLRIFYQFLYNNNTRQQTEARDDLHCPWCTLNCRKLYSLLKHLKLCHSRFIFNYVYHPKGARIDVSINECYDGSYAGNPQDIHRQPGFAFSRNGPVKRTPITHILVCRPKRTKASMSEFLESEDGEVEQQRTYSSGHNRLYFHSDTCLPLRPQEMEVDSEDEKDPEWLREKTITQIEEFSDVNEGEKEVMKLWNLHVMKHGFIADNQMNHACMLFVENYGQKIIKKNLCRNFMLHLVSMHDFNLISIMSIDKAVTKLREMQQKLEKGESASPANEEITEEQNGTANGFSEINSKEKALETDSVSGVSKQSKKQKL

Experiment [2] deals with RING1A, endogenous in BJ fibroblasts (human (endogenous in BJ fibroblasts)) (UniProt Q06587). The experiment can be described thus: co-IP; Supplementary Fig. 3h; SAFA-silenced and senescent cells and their controls; antibodies and direction not told in the text shown; taken as a co-IP from the sentences before it.
The target of experiment [3] is scaffold-attachment-factor A (SAFA), endogenous in HEK293 cells (human (endogenous in HEK293)) (UniProt Q00839). Nature of the experiment: co-IP; lysates of HEK293 cells overexpressing HA-BMI1, FLAG-SUZ12 or FLAG-EZH2; IP with antibodies to HA, FLAG and SAFA, blots for HA, FLAG and SAFA; 300 mM NaCl, 10 mM Tris pH 8.0, 0.5% NP-40, 1 mM EDTA, over night at 4 °C.
The target in experiment [4] is FLAG-tagged SAFAwt (wild-type) (UniProt Q00839). Nature of the experiment: co-IP; lysates of HEK293 cells overexpressing FLAG-tagged wild-type or mutant SAFA; IP with antibody to FLAG, blots for FLAG, BMI1 and EZH2; ratios by densitometry.

These are yes or no findings as the source states them, for the method shown. In cells and extracts the contact can be indirect. Some entries that bind do so weakly or less than the wild type.

On to “BMI1, endogenous in BJ fibroblasts (from UniProt P35226 1-326)”, for which the binding entry in experiment [1] and in experiment [2] was “binds” each time.

Consider “HA-tagged PRC1 component BMI1 (from UniProt P35226 1-326)”, for which the binding result in experiment [3] is given as “binds”.

Regarding “BMI1, endogenous in HEK293 cells (from UniProt P35226 1-326)”, the binding result in experiment [4] is “binds”.

“HP1α, endogenous in BJ fibroblasts (from UniProt P45973 1-191)”: in experiment [1], the binding result was “binds”.

With “FLAG-tagged PRC2 core component SUZ12 (from UniProt Q15022 1-739)”, the binding result in experiment [3] is reported as “binds”.

Source of the values: publication PMC4263151.
